{
  "sequences": {"note": "Sequences of proteins named here, by UniProt entry; tags and fusion partners are left off. Residues count along the entry.", "UniProt P10721, 26-976": "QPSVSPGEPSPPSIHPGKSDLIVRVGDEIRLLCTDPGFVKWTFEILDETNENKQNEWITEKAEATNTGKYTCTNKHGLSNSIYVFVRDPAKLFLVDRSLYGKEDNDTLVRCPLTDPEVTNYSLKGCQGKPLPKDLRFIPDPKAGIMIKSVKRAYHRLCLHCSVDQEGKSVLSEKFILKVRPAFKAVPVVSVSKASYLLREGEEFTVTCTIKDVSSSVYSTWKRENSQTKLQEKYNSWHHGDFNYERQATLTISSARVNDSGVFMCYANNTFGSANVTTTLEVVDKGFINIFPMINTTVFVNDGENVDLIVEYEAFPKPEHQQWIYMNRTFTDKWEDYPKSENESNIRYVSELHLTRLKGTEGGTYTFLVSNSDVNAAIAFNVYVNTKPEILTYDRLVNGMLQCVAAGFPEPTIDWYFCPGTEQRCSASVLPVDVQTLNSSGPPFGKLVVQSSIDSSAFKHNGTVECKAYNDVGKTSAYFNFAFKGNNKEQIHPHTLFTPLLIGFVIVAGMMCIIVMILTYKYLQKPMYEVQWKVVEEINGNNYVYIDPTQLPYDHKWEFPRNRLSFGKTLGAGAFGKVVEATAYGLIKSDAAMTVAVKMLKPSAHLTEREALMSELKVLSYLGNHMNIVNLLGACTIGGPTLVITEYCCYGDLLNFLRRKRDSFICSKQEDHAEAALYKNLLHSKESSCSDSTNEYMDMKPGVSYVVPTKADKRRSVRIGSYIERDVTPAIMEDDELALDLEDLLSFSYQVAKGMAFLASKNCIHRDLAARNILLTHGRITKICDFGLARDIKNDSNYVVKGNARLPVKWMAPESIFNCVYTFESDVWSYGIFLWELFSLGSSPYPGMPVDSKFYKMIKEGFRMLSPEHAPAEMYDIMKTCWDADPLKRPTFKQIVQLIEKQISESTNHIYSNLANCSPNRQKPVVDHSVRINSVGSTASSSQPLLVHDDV"},
  "source": "patent US10662195B2",
  "about": "“Protein kinase conjugates and inhibitors” (Celgene Avilomics Research, Inc., priority 2009, dated 2020)",
  "target": "CKIT (Homo sapiens, UniProt P10721)",
  "experiment": "Mass spectral analysis of tryptic digest of C-KIT after incubation with compound",
  "type": "binding",
  "settings": "C-kit 15 pmols, compound 150 pmols, 3 hrs, MALDI",
  "note": "At least one compound was matched to its structure with a doubt left.",
  "data": [
    {"smiles": "C=CC(=O)Nc1ccc(NC(=O)Nc2ccc(Oc3ccnc(C(=O)NC)c3)cc2)cc1C(F)(F)F", "note": "[XVIII-11, 4-(4-(3-(4-Acrylamido-3-(trifluoromethyl)phenyl)ureido)phenoxy)-N-methylpicolinamide]", "values": [
      {"measurement": "MH+ of compound-modified tryptic peptide (NCIHR) of C-KIT", "result": 1141.49}
    ]}
  ]
}
